Assay results from paper PMC6692047, “Ddc2^ATRIP promotes Mec1^ATR activation at RPA-ssDNA tracts” (PLoS Genetics, 2019).
Results are given in words; binding and its absence hold for the method and conditions named. Some entries that bind do so weakly or less than the wild type. Where a sequence is shown, tags or fusion partners need not be part of it.

Amino acid sequences for entries named in this document (tags omitted).
UniProt P38111: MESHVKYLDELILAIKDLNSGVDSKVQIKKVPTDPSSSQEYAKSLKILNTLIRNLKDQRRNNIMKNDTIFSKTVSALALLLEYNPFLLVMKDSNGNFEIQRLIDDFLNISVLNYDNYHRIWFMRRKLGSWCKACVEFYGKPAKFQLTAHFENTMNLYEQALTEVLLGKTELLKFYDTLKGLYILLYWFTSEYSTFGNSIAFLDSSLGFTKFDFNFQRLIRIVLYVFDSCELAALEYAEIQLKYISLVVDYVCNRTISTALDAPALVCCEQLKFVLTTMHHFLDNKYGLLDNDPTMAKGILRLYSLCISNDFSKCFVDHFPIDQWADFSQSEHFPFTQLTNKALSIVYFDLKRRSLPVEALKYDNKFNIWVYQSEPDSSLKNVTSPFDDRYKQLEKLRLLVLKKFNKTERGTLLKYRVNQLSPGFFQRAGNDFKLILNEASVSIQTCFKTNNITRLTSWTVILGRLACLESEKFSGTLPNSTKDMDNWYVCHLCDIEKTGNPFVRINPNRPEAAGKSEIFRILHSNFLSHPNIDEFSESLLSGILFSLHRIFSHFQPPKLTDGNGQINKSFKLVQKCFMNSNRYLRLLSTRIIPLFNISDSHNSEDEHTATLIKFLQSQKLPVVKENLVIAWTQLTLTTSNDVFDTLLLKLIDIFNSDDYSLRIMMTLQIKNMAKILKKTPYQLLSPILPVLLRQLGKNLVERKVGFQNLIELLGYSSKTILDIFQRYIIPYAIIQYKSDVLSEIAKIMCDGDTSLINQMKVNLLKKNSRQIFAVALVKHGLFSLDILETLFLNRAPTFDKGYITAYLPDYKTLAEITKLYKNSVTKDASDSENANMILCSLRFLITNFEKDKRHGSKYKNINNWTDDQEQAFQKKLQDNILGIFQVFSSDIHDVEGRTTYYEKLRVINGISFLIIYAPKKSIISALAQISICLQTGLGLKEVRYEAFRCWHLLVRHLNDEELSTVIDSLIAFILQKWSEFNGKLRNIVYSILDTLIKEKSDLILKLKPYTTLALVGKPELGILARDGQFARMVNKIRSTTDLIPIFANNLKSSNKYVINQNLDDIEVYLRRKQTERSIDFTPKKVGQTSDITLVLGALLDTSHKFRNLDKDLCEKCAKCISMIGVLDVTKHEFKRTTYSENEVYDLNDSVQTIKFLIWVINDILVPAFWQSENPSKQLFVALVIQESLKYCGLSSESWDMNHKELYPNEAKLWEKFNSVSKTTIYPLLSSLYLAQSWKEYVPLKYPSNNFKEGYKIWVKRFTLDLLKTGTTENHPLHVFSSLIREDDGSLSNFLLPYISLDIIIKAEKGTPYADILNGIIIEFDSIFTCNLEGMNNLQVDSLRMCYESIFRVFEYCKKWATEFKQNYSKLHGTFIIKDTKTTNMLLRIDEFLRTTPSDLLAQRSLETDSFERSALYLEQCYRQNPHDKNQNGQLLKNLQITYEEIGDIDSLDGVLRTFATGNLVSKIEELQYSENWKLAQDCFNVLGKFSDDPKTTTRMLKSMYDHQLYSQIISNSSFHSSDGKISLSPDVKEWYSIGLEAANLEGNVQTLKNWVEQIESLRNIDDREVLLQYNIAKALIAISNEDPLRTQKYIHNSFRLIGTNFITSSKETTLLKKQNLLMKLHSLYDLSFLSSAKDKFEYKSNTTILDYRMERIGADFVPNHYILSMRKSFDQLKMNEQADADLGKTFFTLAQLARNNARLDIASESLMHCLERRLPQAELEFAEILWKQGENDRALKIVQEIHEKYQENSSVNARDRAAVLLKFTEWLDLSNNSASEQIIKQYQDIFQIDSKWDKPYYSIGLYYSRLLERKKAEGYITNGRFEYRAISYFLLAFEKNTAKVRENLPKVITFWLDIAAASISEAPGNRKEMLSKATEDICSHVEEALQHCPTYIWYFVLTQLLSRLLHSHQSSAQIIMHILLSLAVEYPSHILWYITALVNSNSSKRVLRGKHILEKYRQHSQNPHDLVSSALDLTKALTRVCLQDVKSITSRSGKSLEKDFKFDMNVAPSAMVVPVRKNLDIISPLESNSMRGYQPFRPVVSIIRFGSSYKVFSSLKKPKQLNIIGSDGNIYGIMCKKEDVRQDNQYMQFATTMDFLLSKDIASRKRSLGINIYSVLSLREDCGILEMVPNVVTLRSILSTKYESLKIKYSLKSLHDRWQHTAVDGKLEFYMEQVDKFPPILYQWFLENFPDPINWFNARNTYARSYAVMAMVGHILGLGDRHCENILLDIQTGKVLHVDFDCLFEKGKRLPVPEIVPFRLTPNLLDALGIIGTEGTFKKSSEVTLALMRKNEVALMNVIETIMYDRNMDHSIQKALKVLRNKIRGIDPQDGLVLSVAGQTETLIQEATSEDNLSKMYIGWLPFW

Target: FLAG-tagged Mec1 (budding yeast) (UniProt P38111)
Assay: two-step affinity co-purification; FLAG-Mec1 and His-HA-Ddc2 (or Ddc2-S4) co-overexpressed in yeast; crude extract on ANTI-FLAG-M2 agarose, washes up to 400 mM NaCl, FLAG-peptide eluate on Ni-NTA agarose, imidazole elution; 4°C; SDS-PAGE with Coomassie

| Binder | binding |
| --- | --- |
| MBP-Ddc2 (natural protein, budding yeast, UniProt Q04377 1-747, looked up, Ddc2 (ATRIP homolog), budding yeast; also called MBP-fused Ddc2; pMAL-Ddc2; source: E. coli Rosetta, purified (amylose resin)) MRRETVGEFSSDDDDDILLELGTRPPRFTQIPPSSAALQTQIPTTLEVTTTTLNNKQSKNDNQLVNQLNKAQGEASMLRDKINFLNIEREKEKNIQAVKVNELQVKHLQELAKLKQELQKLEDEKKFLQMEARGKSKREVITNVKPPSTTLSTNTNTITPDSSSVAIEAKPQSPQSKKRKISDNLLKKNMVPLNPNRIIPDETSLFLESILLHQIIGADLSTIEILNRLKLDYITEFKFKNFVIAKGAPIGKSIVSLLLRCKKTLTLDRFIDTLLEDIAVLIKEISVHPNESKLAVPFLVALMYQIVQFRPSATHNLALKDCFLFICDLIRIYHHVLKVPIHESNMNLHVEPQIFQYELIDYLIISYSFDLLEGILRVLQSHPKQTYMEFFDENILKSFEFVYKLALTISYKPMVNVIFSAVEVVNIITSIILNMDNSSDLKSLISGSWWRDCITRLYALLEKEIKSGDVYNENVDTTTLHMSKYHDFFGLIRNIGDNELGGLISKLIYTDRLQSVPRVISKEDIGMDSDKFTAPIIGYKMEKWLLKLKDEVLNIFENLLMIYGDDATIVNGEMLIHSSKFLSREQALMIERYVGQDSPNLDLRCHLIEHTLTIIYRLWKDHFKQLREEQIKQVESQLIMSLWRFLVCQTETVTANEREMRDHRHLVDSLHDLTIKDQASYYEDAFEDLPEYIEEELKMQLNKRTGRIMQVKYDEKFQEMARTILESKSFDLTTLEEADSLYISMGL | binds |
| MBP-Ddc2-S4 (natural protein, budding yeast, UniProt Q04377 1-747, looked up, Ddc2 (ATRIP homolog), budding yeast, with the two ddc2-S4 substitutions; also called MBP-fused Ddc2-S4; pMAL-Ddc2-S4; source: E. coli Rosetta, purified (amylose resin)) MRRETVGEFSSDDDDDILLELGTRPPRFTQIPPSSAALQTQIPTTLEVTTTTLNNKQSKNDNQLVNQLNKAQGEASMLRDKINFLNIEREKEKNIQAVKVNELQVKHLQELAKLKQELQKLEDEKKFLQMEARGKSKREVITNVKPPSTTLSTNTNTITPDSSSVAIEAKPQSPQSKKRKISDNLLKKNMVPLNPNRIIPDETSLFLESILLHQIIGADLSTIEILNRLKLDYITEFKFKNFVIAKGAPIGKSIVSLLLRCKETLTLDRFIDTLLEDIAVLIKEISVHPNESKLAVPFLVALMYQIVQFRPSATHNLALKDCFLFICDLIRIYHHVLKVPIHESNMNLHVEPQIFQYELIDYLIISYSFDLLEGILRVLQSYPKQTYMEFFDENILKSFEFVYKLALTISYKPMVNVIFSAVEVVNIITSIILNMDNSSDLKSLISGSWWRDCITRLYALLEKEIKSGDVYNENVDTTTLHMSKYHDFFGLIRNIGDNELGGLISKLIYTDRLQSVPRVISKEDIGMDSDKFTAPIIGYKMEKWLLKLKDEVLNIFENLLMIYGDDATIVNGEMLIHSSKFLSREQALMIERYVGQDSPNLDLRCHLIEHTLTIIYRLWKDHFKQLREEQIKQVESQLIMSLWRFLVCQTETVTANEREMRDHRHLVDSLHDLTIKDQASYYEDAFEDLPEYIEEELKMQLNKRTGRIMQVKYDEKFQEMARTILESKSFDLTTLEEADSLYISMGL | binds |
